Measurements taken from article PMC7202510.
No constants are given. Whether binding was seen depends on the method and setting. Some binding calls cover weakened binding; strength is not graded here. Where a sequence is shown, tags or fusion partners need not be part of it.

Sequences of proteins named here, by UniProt entry; tags and fusion partners are left off.
UniProt P04792: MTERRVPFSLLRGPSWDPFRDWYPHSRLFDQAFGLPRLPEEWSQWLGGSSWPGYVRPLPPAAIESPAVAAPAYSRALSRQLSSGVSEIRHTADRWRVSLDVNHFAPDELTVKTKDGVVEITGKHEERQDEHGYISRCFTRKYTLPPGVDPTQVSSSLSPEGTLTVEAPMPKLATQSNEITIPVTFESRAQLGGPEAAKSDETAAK

Target: T1, High-mobility group nucleosome-binding domain 5 (HMGN5), His-tagged (UniProt P82970)
T1 sequence: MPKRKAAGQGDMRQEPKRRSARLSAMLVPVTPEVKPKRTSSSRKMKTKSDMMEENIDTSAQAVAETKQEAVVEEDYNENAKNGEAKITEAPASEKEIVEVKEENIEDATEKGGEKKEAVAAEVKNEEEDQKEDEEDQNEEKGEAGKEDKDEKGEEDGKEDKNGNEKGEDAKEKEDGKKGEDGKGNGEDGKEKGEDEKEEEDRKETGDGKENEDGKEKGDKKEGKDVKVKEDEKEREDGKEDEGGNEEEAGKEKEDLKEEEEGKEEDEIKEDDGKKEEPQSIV
Assay: pull-down; results: GST-Hsp27 incubated with His-HMGN5 at 4 °C for 4 h, HMGN5 captured by Ni-NTA resin, Hsp27 detected by immunoblotting; methods: GST-fused protein on glutathione Sepharose 4B beads, His-fused protein in 20 mM Tris, 100 mM NaCl, 1 mM DTT, 1 mM EDTA, 30 min; both purified

In the case of “Heat shock protein 27 (Hsp27), GST-tagged (from UniProt P04792 1-205)”, the binding is reported as “binds”.
